Experimental data published in the supplement of paper PMC7666118.
This is one part of the list.

Chains of the proteins cited; added tags and fusions are not shown. Lines headed by an entry give the natural chain unless they say otherwise; changes in a name come on top.
UniProt Q8N4J0: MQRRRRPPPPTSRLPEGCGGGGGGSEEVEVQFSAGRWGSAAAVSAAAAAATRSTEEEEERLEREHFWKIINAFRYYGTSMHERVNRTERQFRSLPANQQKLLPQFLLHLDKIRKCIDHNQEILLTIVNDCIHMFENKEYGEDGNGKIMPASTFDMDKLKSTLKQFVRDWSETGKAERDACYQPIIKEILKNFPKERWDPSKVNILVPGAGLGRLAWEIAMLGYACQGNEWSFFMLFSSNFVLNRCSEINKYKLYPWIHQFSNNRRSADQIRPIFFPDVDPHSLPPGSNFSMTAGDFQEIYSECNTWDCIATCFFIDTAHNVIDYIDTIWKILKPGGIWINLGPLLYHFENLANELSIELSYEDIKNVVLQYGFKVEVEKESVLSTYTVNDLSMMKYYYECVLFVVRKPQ
UniProt Q96G28: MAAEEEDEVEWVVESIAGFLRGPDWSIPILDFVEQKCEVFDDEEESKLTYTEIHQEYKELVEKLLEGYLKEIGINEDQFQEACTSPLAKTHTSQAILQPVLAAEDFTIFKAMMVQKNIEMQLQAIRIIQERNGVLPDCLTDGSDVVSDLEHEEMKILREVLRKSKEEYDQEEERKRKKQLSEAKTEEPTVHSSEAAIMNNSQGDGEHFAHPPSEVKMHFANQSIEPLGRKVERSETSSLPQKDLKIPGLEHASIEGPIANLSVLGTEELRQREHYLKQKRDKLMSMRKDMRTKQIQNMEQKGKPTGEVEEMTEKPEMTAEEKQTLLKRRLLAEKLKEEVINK
UniProt P29466: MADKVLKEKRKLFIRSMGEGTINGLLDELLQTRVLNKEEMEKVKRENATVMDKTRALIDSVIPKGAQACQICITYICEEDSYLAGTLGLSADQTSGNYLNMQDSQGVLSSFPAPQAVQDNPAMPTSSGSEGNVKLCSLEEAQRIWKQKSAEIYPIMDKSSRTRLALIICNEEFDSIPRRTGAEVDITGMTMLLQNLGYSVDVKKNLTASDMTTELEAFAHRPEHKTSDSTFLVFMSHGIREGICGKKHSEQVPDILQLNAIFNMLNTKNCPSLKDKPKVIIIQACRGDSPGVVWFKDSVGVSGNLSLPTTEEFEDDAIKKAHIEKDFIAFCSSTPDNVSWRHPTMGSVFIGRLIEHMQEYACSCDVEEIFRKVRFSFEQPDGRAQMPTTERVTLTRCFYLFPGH
UniProt O95400: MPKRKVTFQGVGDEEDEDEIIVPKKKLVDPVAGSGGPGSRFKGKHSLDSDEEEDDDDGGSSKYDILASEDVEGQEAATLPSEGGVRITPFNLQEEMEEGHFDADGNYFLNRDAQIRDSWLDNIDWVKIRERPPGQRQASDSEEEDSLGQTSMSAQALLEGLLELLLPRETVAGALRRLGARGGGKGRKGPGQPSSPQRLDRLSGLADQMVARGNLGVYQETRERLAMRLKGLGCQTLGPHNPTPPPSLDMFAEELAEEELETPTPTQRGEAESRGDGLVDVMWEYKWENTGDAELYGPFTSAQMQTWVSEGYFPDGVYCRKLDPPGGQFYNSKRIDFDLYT
UniProt P48509: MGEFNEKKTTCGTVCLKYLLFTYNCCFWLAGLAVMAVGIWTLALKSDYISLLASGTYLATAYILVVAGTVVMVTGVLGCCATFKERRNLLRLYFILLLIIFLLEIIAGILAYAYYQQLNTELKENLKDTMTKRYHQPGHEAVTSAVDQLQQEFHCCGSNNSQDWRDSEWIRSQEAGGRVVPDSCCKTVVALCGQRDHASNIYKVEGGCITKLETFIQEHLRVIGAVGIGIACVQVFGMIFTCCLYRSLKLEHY
UniProt Q5JPI3: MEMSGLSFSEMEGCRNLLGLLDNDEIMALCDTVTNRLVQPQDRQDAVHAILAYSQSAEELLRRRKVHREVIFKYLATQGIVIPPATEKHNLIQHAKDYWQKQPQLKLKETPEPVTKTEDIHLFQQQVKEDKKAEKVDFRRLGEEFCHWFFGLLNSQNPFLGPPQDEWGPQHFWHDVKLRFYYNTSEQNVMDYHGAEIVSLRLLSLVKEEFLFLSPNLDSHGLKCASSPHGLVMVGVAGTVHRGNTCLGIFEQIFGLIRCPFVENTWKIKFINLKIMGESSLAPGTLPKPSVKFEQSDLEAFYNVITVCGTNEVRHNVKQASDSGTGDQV
UniProt P78371: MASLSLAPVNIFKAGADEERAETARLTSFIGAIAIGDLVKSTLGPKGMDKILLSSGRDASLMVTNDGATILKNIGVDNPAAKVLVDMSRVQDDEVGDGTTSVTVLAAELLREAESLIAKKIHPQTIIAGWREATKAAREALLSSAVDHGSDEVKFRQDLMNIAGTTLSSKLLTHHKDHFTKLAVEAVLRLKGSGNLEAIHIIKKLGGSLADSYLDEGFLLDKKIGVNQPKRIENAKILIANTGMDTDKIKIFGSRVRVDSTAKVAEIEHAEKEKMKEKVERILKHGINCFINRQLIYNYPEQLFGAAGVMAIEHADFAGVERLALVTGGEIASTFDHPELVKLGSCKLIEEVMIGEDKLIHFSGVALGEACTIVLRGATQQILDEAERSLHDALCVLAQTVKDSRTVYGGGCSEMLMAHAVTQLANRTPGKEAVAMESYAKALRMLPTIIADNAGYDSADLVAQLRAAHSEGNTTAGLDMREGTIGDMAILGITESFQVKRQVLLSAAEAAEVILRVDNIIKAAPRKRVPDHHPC
UniProt Q16204: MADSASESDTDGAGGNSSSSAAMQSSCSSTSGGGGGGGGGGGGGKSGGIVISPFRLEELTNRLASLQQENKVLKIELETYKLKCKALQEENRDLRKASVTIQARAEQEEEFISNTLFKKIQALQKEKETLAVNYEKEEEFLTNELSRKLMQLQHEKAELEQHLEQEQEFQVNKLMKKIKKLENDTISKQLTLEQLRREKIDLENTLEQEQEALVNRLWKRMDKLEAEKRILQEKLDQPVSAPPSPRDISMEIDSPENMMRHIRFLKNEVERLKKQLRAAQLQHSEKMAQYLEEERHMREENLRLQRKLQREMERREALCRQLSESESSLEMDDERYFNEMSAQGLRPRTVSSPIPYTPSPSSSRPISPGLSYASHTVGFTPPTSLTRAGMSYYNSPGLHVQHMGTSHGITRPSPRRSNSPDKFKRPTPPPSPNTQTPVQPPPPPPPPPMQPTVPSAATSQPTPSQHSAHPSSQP
UniProt P27708: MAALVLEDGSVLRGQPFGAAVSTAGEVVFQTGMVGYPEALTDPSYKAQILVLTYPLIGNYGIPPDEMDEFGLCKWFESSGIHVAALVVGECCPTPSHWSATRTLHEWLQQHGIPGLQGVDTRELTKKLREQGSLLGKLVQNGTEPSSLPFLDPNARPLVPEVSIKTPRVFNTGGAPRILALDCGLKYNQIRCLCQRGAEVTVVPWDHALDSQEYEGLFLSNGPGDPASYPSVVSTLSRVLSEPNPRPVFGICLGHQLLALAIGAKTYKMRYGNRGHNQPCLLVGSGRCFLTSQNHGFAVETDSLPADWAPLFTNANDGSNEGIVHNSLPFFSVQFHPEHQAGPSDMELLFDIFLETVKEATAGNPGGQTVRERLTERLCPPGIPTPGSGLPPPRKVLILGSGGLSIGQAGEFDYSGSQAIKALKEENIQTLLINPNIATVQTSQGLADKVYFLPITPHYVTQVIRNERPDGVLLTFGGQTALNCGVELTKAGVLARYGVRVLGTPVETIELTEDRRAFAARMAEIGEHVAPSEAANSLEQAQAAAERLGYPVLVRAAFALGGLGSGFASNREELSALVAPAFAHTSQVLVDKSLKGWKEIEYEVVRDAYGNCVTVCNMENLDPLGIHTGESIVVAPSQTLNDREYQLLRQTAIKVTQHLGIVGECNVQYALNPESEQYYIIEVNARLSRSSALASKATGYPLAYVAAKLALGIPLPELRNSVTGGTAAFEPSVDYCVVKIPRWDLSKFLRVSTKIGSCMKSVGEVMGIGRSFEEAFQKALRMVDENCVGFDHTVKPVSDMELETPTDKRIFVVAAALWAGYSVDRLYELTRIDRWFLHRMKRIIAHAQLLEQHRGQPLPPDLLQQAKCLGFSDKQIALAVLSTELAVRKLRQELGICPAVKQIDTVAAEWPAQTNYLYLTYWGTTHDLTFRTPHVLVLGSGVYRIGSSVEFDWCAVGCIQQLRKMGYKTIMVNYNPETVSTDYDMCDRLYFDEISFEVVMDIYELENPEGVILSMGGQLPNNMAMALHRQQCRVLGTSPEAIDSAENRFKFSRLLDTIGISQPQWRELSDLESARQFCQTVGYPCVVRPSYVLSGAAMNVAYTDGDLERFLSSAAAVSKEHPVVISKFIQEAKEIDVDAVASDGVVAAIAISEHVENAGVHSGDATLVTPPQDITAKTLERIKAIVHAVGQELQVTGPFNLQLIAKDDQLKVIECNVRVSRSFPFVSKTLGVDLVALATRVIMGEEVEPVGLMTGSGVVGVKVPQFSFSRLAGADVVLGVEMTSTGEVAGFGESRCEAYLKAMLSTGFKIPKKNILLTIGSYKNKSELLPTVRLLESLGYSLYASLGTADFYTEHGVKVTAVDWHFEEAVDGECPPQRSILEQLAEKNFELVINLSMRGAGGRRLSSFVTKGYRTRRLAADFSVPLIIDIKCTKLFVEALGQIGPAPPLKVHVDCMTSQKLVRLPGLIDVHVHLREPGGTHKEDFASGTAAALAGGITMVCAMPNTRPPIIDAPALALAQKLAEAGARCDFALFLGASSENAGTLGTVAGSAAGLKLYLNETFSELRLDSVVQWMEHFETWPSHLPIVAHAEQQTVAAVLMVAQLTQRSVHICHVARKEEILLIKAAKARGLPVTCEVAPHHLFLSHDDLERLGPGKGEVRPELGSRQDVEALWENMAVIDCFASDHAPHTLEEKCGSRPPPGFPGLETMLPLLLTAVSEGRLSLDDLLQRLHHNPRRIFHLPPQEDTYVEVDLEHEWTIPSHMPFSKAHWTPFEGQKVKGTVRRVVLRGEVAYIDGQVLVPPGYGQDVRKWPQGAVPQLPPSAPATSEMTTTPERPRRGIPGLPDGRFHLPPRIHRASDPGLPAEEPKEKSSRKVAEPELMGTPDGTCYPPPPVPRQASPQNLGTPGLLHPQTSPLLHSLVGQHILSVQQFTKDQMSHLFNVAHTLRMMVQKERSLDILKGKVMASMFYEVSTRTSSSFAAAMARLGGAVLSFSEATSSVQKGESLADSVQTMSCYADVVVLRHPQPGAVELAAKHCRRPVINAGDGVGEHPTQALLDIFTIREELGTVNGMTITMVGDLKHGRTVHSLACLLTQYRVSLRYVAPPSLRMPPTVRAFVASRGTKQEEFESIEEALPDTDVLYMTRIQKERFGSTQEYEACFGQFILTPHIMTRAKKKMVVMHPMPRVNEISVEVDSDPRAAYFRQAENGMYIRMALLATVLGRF
UniProt Q5TEU4: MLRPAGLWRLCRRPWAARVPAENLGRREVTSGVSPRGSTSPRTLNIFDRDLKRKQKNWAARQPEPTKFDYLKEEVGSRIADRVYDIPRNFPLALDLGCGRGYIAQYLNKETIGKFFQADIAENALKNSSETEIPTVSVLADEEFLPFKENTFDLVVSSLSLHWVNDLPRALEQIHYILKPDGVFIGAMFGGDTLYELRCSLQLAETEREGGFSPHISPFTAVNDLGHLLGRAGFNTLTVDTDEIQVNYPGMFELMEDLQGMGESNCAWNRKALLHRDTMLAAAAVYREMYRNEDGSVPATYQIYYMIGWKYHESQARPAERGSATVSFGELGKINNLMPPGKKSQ
UniProt Q6NT16: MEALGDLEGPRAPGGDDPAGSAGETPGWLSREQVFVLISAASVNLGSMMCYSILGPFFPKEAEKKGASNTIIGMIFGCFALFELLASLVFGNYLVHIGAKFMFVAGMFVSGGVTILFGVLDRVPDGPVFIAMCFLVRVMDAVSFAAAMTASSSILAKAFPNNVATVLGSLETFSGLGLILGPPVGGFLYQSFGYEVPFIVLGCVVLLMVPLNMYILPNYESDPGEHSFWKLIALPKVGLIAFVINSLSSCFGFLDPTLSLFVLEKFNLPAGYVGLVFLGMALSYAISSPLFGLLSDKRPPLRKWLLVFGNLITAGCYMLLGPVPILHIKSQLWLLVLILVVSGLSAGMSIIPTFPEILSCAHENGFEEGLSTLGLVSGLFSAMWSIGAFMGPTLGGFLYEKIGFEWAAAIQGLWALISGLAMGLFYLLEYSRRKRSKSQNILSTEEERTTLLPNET
UniProt Q16566: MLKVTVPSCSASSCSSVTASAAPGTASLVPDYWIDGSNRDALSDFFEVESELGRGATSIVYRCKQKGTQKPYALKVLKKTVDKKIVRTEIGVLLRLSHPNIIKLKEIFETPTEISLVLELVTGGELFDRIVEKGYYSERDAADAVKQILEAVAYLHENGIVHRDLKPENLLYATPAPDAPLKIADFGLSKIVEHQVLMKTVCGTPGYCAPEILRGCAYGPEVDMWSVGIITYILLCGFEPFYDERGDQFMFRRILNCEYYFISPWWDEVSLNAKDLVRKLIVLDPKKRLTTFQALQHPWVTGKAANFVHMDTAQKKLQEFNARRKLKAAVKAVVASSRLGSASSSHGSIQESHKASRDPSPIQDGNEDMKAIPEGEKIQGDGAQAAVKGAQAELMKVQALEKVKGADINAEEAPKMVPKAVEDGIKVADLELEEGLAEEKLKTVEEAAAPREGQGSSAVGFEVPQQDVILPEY

What follows are targets tested with COc1ccc(Cn2ccc3cc(C)c(C(=O)NO)cc32)cc1 (assay: dose-dependent thermal stabilisation call (2D-TPP, DLPTP, 10% FDR) (binary (1 = stabilised)); higher = stabilised by the compound). Conditions: system: HL-60 intact cells; concentration range 0.04-10 µM.
Protocol: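 2D thermal proteome profiling in intact HL-60 cells treated with BRD-3811 (0, 0.04, 0.29, 2, 10 uM) for 90 min at 37 C, then heated 3 min at one of 12 temperatures (42-63.9 C). Soluble protein was quantified by TMT10 MS. The value is the DLPTP call of the paper: dose-dependent thermal stabilisation over all temperatures at 10% FDR (F-test of a dose-response against a flat model); one experiment, one call per tested protein.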

| Target | dose-dependent thermal stabilisation call |
| --- | --- |
| CARD8 (UniProt Q9Y2G2) | inactive: 0 |
| CBL (UniProt P22681) | inactive: 0 |
| CAMKK2 (UniProt Q96RR4) | inactive: 0 |
| C1ORF57 (UniProt Q9BSD7) | inactive: 0 |
| C3ORF59 (UniProt Q8IYB1) | inactive: 0 |
| C9ORF41 (UniProt Q8N4J0) | inactive: 0 |
| C20ORF24 (UniProt Q9BUV8) | inactive: 0 |
| CCDC104 (UniProt Q96G28) | inactive: 0 |
| C20ORF20 (UniProt Q9NV56) | inactive: 0 |
| CASP1 (UniProt P29466) | inactive: 0 |
| CD2BP2 (UniProt O95400) | inactive: 0 |
| C22ORF9 (UniProt Q6ICG6) | inactive: 0 |
| C2ORF43 (UniProt Q9H6V9) | inactive: 0 |
| CD151 (UniProt P48509) | inactive: 0 |
| CCDC59 (UniProt Q9P031) | inactive: 0 |
| C3ORF38 (UniProt Q5JPI3) | inactive: 0 |
| CCDC58 (UniProt Q4VC31) | inactive: 0 |
| CBR1 (UniProt P16152) | inactive: 0 |

| Target | dose-dependent thermal stabilisation call |
| --- | --- |
| C3ORF64 (UniProt Q5NDL2) | inactive: 0 |
| CCT2 (UniProt P78371) | inactive: 0 |
| C19ORF70 (UniProt Q5XKP0) | inactive: 0 |
| CCBL1 (UniProt Q16773) | inactive: 0 |
| CALCOCO1 (UniProt Q9P1Z2) | inactive: 0 |
| C1ORF9 (UniProt Q9UBS9) | inactive: 0 |
| CCDC6 (UniProt Q16204) | inactive: 0 |
| CAD (UniProt P27708) | inactive: 0 |
| C3ORF75 (UniProt Q0PNE2) | inactive: 0 |
| CCDC94 (UniProt Q9BW85) | inactive: 0 |
| C20ORF7 (UniProt Q5TEU4) | inactive: 0 |
| C9ORF46 (UniProt Q9HBL7) | inactive: 0 |
| C6ORF192 (UniProt Q6NT16) | inactive: 0 |
| CCDC99 (UniProt Q96EA4) | inactive: 0 |
| CCNB1 (UniProt P14635) | inactive: 0 |
| CCT3 (UniProt P49368) | inactive: 0 |
| C6ORF162 (UniProt Q96KF7) | inactive: 0 |
| CAMK4 (UniProt Q16566) | inactive: 0 |

Shown as comma-separated lines: entries from further up
Target,dose-dependent thermal stabilisation call
C3ORF64 (UniProt Q5NDL2),inactive: 0
C19ORF70 (UniProt Q5XKP0),inactive: 0
CCBL1 (UniProt Q16773),inactive: 0
CALCOCO1 (UniProt Q9P1Z2),inactive: 0
CCDC6 (UniProt Q16204),inactive: 0
C6ORF192 (UniProt Q6NT16),inactive: 0
CCDC99 (UniProt Q96EA4),inactive: 0
CCNB1 (UniProt P14635),inactive: 0
CCT3 (UniProt P49368),inactive: 0
